# The supplement of paper PMC8728848
# This is one part of the list.
# B1: SJCP1531 (Schistosoma japonicum) (protein)
# chain: MFKVRIINLVNISTVLLLINLLQTKSQVNVEQLVTVLEVNIKAQLKNKTTEVLVEWNPLYQDNSMPEYRKLLDETCKLFLPFVNEKVPPSTYGGECTNANFSEAPQDGSYSRVNAELRLIYKYSDNPQIQTDRLQDDLNDREEFITSESSFVAYNPKFTVKIEKLFIPISESQTTPPPTTAKNDASKKDDDDNGGEDSKAPIDTFAMTASGNKGKKDDDDNGGEDSKAPIDTFAMTASGSKDERSTWTIIGIITLVVLIFVVIGGGITVFVKRC
# Experiments:
# Assay in all cases: glycan array binding signal (z-score within array); higher = stronger binding
# Settings in all cases: glycan notation: IUPAC condensed, linker removed
# [1] = molecular target: Gal(b1-4)GlcNAc(b1-3)Gal(b1-4)GlcNAc(b1-6)[Gal(b1-3)]GalNAc
# How it was run: (§1)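 The Consortium for Functional Glycomics database supplied 3228 glycan arrays, of which those lacking an available protein sequence were dropped. The binding signal, a within-array Z-score, was averaged across arrays of the same protein sequence and across linkers. Negative scores can be read as non-binding.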
# [2] = molecular target: Gal(b1-4)GlcNAc(b1-3)Gal(b1-4)[Fuc(a1-3)]GlcNAc(b1-3)Gal(b1-4)[Fuc(a1-3)]GlcNAc
# How it was run: as §1
# [3] = molecular target: Gal(b1-4)GlcNAc(b1-3)GalNAc
# How it was run: as §1
# [4] = molecular target: Gal(b1-4)GlcNAc(b1-3)[Fuc(a1-3)GlcNAc(b1-6)]Gal(b1-4)Glc
# How it was run: as §1
# [5] = molecular target: Gal(b1-4)GlcNAc(b1-3)[Gal(b1-4)GlcNAc(b1-6)]Gal(b1-4)GlcNAc
# How it was run: as §1
# [6] = molecular target: Gal(b1-4)GlcNAc(b1-3)[GlcNAc(b1-6)]Gal(b1-4)GlcNAc
# How it was run: as §1
# [7] = molecular target: Gal(b1-4)GlcNAc(b1-6)Gal(b1-4)GlcNAc
# How it was run: as §1
# [8] = molecular target: Gal(b1-4)GlcNAc(b1-6)GalNAc
# How it was run: as §1
# [9] = molecular target: Gal(b1-4)GlcNAc(b1-6)[Gal(b1-3)]GalNAc
# How it was run: as §1
# [10] = molecular target: Gal(b1-4)GlcNAc(b1-6)[Gal(b1-4)GlcNAc(b1-3)]GalNAc
# How it was run: as §1
# Gal(b1-4)GlcNAc6P = molecular target: Gal(b1-4)GlcNAc6P
# How it was run: as §1
# Gal(b1-6)Gal = molecular target: Gal(b1-6)Gal
# How it was run: as §1
# Gal3S(b1-3)GalNAc = molecular target: Gal3S(b1-3)GalNAc
# How it was run: as §1
# Gal3S(b1-3)GlcNAc = molecular target: Gal3S(b1-3)GlcNAc
# How it was run: as §1
# [11] = molecular target: Gal3S(b1-3)[Fuc(a1-4)]GlcNAc
# How it was run: as §1
# Gal3S(b1-4)Glc = molecular target: Gal3S(b1-4)Glc
# How it was run: as §1
# Gal3S(b1-4)Glc6S = molecular target: Gal3S(b1-4)Glc6S
# How it was run: as §1
# Gal3S(b1-4)GlcNAc = molecular target: Gal3S(b1-4)GlcNAc
# How it was run: as §1
# [12] = molecular target: Gal3S(b1-4)[Fuc(a1-3)]Glc6S
# How it was run: as §1
# [13] = molecular target: Gal3S(b1-4)[Fuc(a1-3)]GlcNAc
# How it was run: as §1
# [14] = molecular target: Gal3S(b1-4)[Fuc(a1-3)]GlcNAc6S
# How it was run: as §1
# Gal3S4S(b1-4)GlcNAc = molecular target: Gal3S4S(b1-4)GlcNAc
# How it was run: as §1
# Gal3S6S(b1-4)GlcNAc = molecular target: Gal3S6S(b1-4)GlcNAc
# How it was run: as §1
# Gal3S6S(b1-4)GlcNAc6S = molecular target: Gal3S6S(b1-4)GlcNAc6S
# How it was run: as §1
# Gal4S(b1-4)GlcNAc = molecular target: Gal4S(b1-4)GlcNAc
# How it was run: as §1
# Gal4S6S(b1-4)GlcNAc = molecular target: Gal4S6S(b1-4)GlcNAc
# How it was run: as §1
# Gal6P(b1-4)GlcNAc = molecular target: Gal6P(b1-4)GlcNAc
# How it was run: as §1
# Gal6S(b1-3)GlcNAc = molecular target: Gal6S(b1-3)GlcNAc
# How it was run: as §1
# Gal6S(b1-3)GlcNAc6S = molecular target: Gal6S(b1-3)GlcNAc6S
# How it was run: as §1
# Gal6S(b1-4)Glc = molecular target: Gal6S(b1-4)Glc
# How it was run: as §1
# Gal6S(b1-4)Glc6S = molecular target: Gal6S(b1-4)Glc6S
# How it was run: as §1
# Gal6S(b1-4)GlcNAc = molecular target: Gal6S(b1-4)GlcNAc
# How it was run: as §1
# Gal6S(b1-4)GlcNAc6S = molecular target: Gal6S(b1-4)GlcNAc6S
# How it was run: as §1
# GalNAc(a1-3)Gal = molecular target: GalNAc(a1-3)Gal
# How it was run: as §1
# GalNAc(a1-3)GalNAc = molecular target: GalNAc(a1-3)GalNAc
# How it was run: as §1
# [15] = molecular target: GalNAc(a1-3)GalNAc(b1-3)Gal(a1-4)Gal(b1-4)Glc
# How it was run: as §1
# [16] = molecular target: GalNAc(a1-3)GalNAc(b1-3)Gal(a1-4)Gal(b1-4)GlcNAc
# How it was run: as §1
binder,measurement,setting,value
B1,glycan array binding signal (z-score),[1],1.62
same,glycan array binding signal (z-score),[2],1.49
same,glycan array binding signal (z-score),[3],-0.998
same,glycan array binding signal (z-score),[4],-0.422
same,glycan array binding signal (z-score),[5],0.173
same,glycan array binding signal (z-score),[6],0.811
same,glycan array binding signal (z-score),[7],-0.497
same,glycan array binding signal (z-score),[8],0.703
same,glycan array binding signal (z-score),[9],0.77
same,glycan array binding signal (z-score),[10],-0.768
same,glycan array binding signal (z-score),Gal(b1-4)GlcNAc6P,0.145
same,glycan array binding signal (z-score),Gal(b1-6)Gal,-0.493
same,glycan array binding signal (z-score),Gal3S(b1-3)GalNAc,0.534
same,glycan array binding signal (z-score),Gal3S(b1-3)GlcNAc,0.215
same,glycan array binding signal (z-score),[11],-0.535
same,glycan array binding signal (z-score),Gal3S(b1-4)Glc,-0.369
same,glycan array binding signal (z-score),Gal3S(b1-4)Glc6S,-0.295
same,glycan array binding signal (z-score),Gal3S(b1-4)GlcNAc,0.508
same,glycan array binding signal (z-score),[12],0.708
same,glycan array binding signal (z-score),[13],0.704
same,glycan array binding signal (z-score),[14],1.28
same,glycan array binding signal (z-score),Gal3S4S(b1-4)GlcNAc,-0.234
same,glycan array binding signal (z-score),Gal3S6S(b1-4)GlcNAc,1.01
same,glycan array binding signal (z-score),Gal3S6S(b1-4)GlcNAc6S,3.17
same,glycan array binding signal (z-score),Gal4S(b1-4)GlcNAc,-0.78
same,glycan array binding signal (z-score),Gal4S6S(b1-4)GlcNAc,-0.722
same,glycan array binding signal (z-score),Gal6P(b1-4)GlcNAc,-1.05
same,glycan array binding signal (z-score),Gal6S(b1-3)GlcNAc,0.127
same,glycan array binding signal (z-score),Gal6S(b1-3)GlcNAc6S,1.38
same,glycan array binding signal (z-score),Gal6S(b1-4)Glc,-0.424
same,glycan array binding signal (z-score),Gal6S(b1-4)Glc6S,-0.87
same,glycan array binding signal (z-score),Gal6S(b1-4)GlcNAc,-0.352
same,glycan array binding signal (z-score),Gal6S(b1-4)GlcNAc6S,1.72
same,glycan array binding signal (z-score),GalNAc(a1-3)Gal,1.48
same,glycan array binding signal (z-score),GalNAc(a1-3)GalNAc,0.614
same,glycan array binding signal (z-score),[15],-1.11
same,glycan array binding signal (z-score),[16],0.943

# Some of the entries above, reformatted.
binder	measurement	setting	value
B1	glycan array binding signal (z-score)	[14]	1.28
same	glycan array binding signal (z-score)	Gal3S4S(b1-4)GlcNAc	-0.234
same	glycan array binding signal (z-score)	Gal3S6S(b1-4)GlcNAc	1.01
